Results are given in words; binding and its absence hold for the method and conditions named. Some entries that bind do so weakly or less than the wild type.
Assays:
[1] = biological target: human nicotinic acetylcholine receptor β2 subunit (free subunit) (human) (UniProt P17787); test: sucrose gradient sedimentation; Triton X-100 extracts of 30-50 oocytes on 5-20% sucrose gradients, 16 h at 40,000 rpm, 4°C; fractions immunoisolated on mAb 295-coated wells (β2 held) and labelled with 2 nM 3H epibatidine; Torpedo AChR monomers and dimers as internal standards
[2] = biological target: human nicotinic acetylcholine receptor β2 subunit (free subunit) (human) (UniProt P17787); test: immunoisolation on antibody-coated microwells read by 3H epibatidine binding; Triton X-100 extracts of oocyte membranes (6 days after cRNA injection, α6:β2:β3 1:1:1) on mAb 295-coated wells (β2 held), 2 nM 3H epibatidine, PBS with 0.5% Triton X-100, overnight at 4°C; ACh binding sites as read-out of α6 with β2
[3] = biological target: human nicotinic acetylcholine receptor β3 subunit (free subunit) (human) (UniProt Q05901); test: immunoisolation on antibody-coated microwells read by 3H epibatidine binding; detergent-solubilised AChRs from oocytes on mAb 210-coated wells (β3 held) compared with mAb 295-coated wells (β2 held); bound AChRs assayed by 3H epibatidine

Chains of the proteins cited; added tags and fusions are not shown. Residues count along the entry.
UniProt P17787, residues 26-502: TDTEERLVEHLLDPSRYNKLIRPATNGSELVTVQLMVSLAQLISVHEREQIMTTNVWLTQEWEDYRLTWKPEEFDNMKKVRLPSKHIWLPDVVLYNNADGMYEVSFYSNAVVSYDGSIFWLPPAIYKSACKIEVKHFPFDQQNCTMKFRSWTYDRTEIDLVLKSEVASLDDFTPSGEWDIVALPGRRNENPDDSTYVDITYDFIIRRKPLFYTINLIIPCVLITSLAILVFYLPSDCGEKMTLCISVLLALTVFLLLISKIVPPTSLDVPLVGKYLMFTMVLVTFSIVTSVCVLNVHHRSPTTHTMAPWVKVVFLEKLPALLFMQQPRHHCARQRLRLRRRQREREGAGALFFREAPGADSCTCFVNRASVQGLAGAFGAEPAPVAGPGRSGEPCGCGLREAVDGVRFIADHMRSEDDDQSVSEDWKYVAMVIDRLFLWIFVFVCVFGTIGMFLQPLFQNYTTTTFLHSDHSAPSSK
UniProt Q05901, residues 22-458: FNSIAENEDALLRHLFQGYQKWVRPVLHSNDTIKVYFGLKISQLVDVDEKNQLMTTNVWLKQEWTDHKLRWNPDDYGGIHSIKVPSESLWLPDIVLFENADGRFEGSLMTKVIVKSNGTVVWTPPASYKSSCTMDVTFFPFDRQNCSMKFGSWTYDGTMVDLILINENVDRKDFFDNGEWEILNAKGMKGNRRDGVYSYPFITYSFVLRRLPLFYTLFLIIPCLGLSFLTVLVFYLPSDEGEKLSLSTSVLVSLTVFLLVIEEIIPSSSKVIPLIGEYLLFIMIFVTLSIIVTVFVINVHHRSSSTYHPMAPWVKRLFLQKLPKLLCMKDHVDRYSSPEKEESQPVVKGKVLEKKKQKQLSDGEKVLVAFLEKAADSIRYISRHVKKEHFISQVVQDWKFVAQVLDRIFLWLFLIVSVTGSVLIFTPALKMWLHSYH
UniProt Q15825, residues 26-494: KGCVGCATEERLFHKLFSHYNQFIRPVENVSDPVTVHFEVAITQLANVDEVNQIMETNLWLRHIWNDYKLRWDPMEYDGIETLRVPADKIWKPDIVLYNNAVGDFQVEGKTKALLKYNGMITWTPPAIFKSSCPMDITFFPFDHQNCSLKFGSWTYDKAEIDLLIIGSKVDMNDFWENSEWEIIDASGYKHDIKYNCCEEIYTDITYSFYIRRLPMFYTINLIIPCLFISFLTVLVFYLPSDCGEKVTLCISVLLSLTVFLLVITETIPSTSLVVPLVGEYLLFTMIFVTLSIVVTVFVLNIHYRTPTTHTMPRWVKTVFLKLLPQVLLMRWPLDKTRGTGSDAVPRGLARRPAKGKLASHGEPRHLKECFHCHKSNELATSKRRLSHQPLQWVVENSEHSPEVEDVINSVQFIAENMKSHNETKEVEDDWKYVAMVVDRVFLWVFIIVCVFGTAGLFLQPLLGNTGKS

| Substance | binding [1] | binding [2] | binding [3] |
| --- | --- | --- | --- |
| human nicotinic acetylcholine receptor α6 subunit (free native subunit) (from UniProt Q15825 26-494) | binds | binds | – |
| human nicotinic acetylcholine receptor β2 subunit (free subunit) (from UniProt P17787 26-502) | – | – | binds |
